The values that follow come from paper PMC11006906.

Sequences of proteins named here, by UniProt entry; tags and fusion partners are left off. A change or cut given only in a name is not applied to a line headed by its entry.
UniProt P61026: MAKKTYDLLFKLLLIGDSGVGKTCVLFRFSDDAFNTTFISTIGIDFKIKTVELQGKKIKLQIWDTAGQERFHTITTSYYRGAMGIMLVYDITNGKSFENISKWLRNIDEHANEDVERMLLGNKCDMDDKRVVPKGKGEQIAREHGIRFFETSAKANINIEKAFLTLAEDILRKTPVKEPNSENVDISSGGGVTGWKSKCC
UniProt Q8NDI1: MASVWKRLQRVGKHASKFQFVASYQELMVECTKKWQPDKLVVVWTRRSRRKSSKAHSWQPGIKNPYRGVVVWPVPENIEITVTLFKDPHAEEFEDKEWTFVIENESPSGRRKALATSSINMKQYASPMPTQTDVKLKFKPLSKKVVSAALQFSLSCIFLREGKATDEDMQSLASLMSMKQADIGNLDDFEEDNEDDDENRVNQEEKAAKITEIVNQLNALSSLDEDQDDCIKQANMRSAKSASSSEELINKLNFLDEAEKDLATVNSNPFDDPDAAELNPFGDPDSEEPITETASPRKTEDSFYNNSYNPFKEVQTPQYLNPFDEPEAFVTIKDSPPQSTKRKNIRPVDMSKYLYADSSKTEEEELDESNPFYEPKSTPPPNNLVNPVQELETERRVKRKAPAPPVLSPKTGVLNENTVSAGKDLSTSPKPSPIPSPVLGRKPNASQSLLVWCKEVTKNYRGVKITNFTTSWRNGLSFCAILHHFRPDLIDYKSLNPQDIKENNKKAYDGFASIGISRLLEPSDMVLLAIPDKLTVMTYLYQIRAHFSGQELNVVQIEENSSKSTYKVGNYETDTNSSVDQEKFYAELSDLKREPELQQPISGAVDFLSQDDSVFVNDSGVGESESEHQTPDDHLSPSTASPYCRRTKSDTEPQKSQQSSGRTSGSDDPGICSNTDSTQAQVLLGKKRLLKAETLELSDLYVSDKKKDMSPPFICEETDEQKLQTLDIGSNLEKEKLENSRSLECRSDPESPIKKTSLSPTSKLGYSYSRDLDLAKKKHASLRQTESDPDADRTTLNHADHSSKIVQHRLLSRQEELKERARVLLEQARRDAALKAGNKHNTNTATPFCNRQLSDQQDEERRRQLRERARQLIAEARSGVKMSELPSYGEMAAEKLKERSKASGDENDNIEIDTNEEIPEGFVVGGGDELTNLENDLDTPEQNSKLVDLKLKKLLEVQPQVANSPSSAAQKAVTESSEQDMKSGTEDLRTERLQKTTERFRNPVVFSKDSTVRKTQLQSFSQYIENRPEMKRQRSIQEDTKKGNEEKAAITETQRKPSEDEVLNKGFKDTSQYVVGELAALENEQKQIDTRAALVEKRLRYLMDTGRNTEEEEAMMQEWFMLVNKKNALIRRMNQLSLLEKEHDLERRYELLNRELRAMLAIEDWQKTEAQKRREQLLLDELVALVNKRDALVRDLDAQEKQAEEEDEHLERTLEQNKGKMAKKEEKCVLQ

These are yes or no findings as the source states them, for the method shown. Binding seen in cells or lysates may run through a third protein. A yes stands for co-enrichment or nearness to the bait. Other partners may have been found. For some assays here: A no says only that the protein was not detected with the bait.

Test [1] deals with FlagBirA*-RAB10 Q68L (constitutively active) (UniProt P61026). Nature of the test: proximity labelling; BioID: FlagBirA*-RAB10 bait stably expressed in Flp-In T-REx 293 cells, tetracycline 1 ug/ml, biotin 50 uM for 20 h; streptavidin-sepharose purification and mass spectrometry; high confidence interactors BFDR <= 0.01 (SAINT) against FlagBirA* alone.
For test [2], the target named is FlagBirA*-RAB10 T23N (dominant negative) (UniProt P61026). The test is described as above.

EHBP1 (from UniProt Q8NDI1 1-1231): the binding result in test [1] is “binds”; in test [2], “no binding”.
